Laboratory results: US6927223B1, “Use of serotonin agents for adjunct therapy in the treatment of cancer” (priority 2000, dated 2005)

Test system: B16BL6 melanoma
Test: Established subcutaneous B16BL6 melanoma in water- or ethanol-drinking C57BL6 mice: tumor growth, metastasis, body weight, intake, body fat
Conditions: for food intake: ethanol-consuming mice, treatment period
Experimental: In an effort to approximate the effect of SSRIs on melanomas in clinical situations, administration of the agents began after tumor growth was apparent.
Fourteen to 16 C57BL6 mice per group were inoculated s.c. with 1×10^6 B16BL6 melanoma cells. […] The test agent and saline control were injected daily subcutaneously (s.c.) into the gluteal region opposite from the site of tumor inoculation, approximately two hours before the dark cycle. […] At 21 days the animals were sacrificed.
Female C57/BL6 mice consumed either water or 20% w/v ethanol ad libitum for six weeks prior to inoculation with of melanoma cells. The mice were injected with 1×10^6 tumor cells subcutaneously (s.c.) into the dorsal hip.
Two weeks after inoculation, the animals were divided into four treatment groups: (1) water drinking or (2) ethanol drinking, both groups injected with saline control for seven days; (3) water drinking or (4) ethanol drinking. […] Tumor growth was measured with calipers on days 14, 16, 18, and 20. Mice were killed on day 21 and necropsied.
Perigonadal and carcass fat were determined. Body weight, food consumption, and fluid-consumption were measured continually throughout the experiment.
Perigonadal fat, a measure of body fat content, was removed at necropsy and weighed. Mice were then dehydrated at 60° C. until they reached constant weight. They were then pulverized in a Bel-Art Micro-Mill. The whole carcass was transferred to a soxhlet extractor and the lipid was extracted with chloroform:methanol (2:1) for 24 hours. The extraction cone containing the carcass was removed, air-dried to evaporate the chloroform and methanol, and then weighed. The difference in weight was the weight of carcass lipid. The percentage of carcass lipid was calculated as the weight of lipid/dry carcass weight×100.

Compound: CNCCC(Oc1ccc(C(F)(F)F)cc1)c1ccccc1 (stereo not shown) [fluoxetine]
- food intake (versus saline-injected controls): stimulated food intake
- food intake (versus saline-injected controls, listed as Fluoxetine): significant (p<0.001) increase
- ethanol consumption (ethanol-drinking mice, third week of tumor growth, versus saline-injected controls): significant (p<0.001) increase
- body weight gain from week 3 to week 4 (water- and ethanol-drinking tumor-bearing mice): did not gain body weight
